Results deposited as PubChem BioAssay AID652259 (Drosophila RNAi Screening Center, 2013).
The deposit covers about 22,000 reagents; below is a random part of those that have a named target and a result. Over the whole deposit, 233 (1.1%) are marked active. 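Light values are raw, unnormalised plate reads; the ratio scores behind the reporter calls were not deposited.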 Names joined by + are all predicted targets of the reagent. Not given: the amount of reagent, the time to read-out, the dose of the treatment.

Purpose: 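Knock-downs that push a Wingless-driven reporter up or down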 (primary screen)
Cells: Drosophila clone 8 imaginal disc epithelial cells
Reagents: long dsRNA against Drosophila genes
Conditions: pathway stimulated by co-transfected Wingless expression plasmid
Detection: 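Firefly luciferase from a tcf-site Wingless reporter, measured alongside co-transfected Renilla luciferase that tracks transfection; pathway stimulated by a Wingless plasmid; the firefly-to-Renilla ratio is not deposited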
Scale: firefly reporter light: higher = more Wg reporter light, before normalisation; Renilla control light: higher = more transfected or surviving cells
Hit rule: 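a knock-down is a candidate when at least two out of four statistical tests show it departing from its plate mean; one test alone signals a weak candidate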
Meaning of the calls: active = candidate regulator (raises or lowers reporter); inactive = not a candidate

target gene	DRSC id	reporter change call, replicate 1	firefly reporter light, replicate 1	firefly reporter light, replicate 2	Renilla control light, replicate 1	Renilla control light, replicate 2	outcome
CG18178	DRSC10302		2432		852		inactive
CG11298	DRSC04100		1891	5451	346	2023	inactive
hdm (hold'em)	DRSC18013		21017		8162		inactive
CG14982	DRSC08440		3621		712		inactive
CG32762	DRSC18298		28438		11318		inactive
sano (serrano)	DRSC06165		13328		4067		inactive
CG7079	DRSC16192		12876		3932		inactive
BomBc2 (Bomanin Bicipital 2)	DRSC06502		3776		1515		inactive
CG1542	DRSC15035		1895	5532	586	1776	inactive
CG32061	DRSC22605		5.61e5	5.80e5	2.37e5	79667	inactive
Tsp42Eo (Tetraspanin 42Eo)	DRSC06184		2768	4837	728	2554	inactive
idc (identity crisis)	DRSC15680		1800	5898	920	1908	inactive
CG6324	DRSC19985		15148		7090		inactive
bero (belly roll)	DRSC03211		2784	7484	971	2756	inactive
CG31344	DRSC16069		15792		3161		inactive
AANATL2 (Arylalkylamine N-acetyltransferase-like 2)	DRSC03227		2147	7155	544	1932	inactive
Nup43 (Nucleoporin 43kD)	DRSC16279		20113		4003		inactive
CR42545 (pseudo)	DRSC03709		4232	7852	1323	2976	inactive
CG5174	DRSC06920		21781		5392		inactive
CG1273	DRSC08291		4759		2384		inactive
CG7110	DRSC03011	Wg reporter activity lowered	6402		3041		inactive
CG7110	DRSC03012		1986	6900	1318	3187	inactive
CG42523	DRSC00251		19840		11709		inactive
Lcp9 (Larval cuticle protein 9)	DRSC04287		3453	6691	774	1820	inactive
CG15657	DRSC04248		2261	3460	873	1818	inactive
CG2246	DRSC15433		3126	6681	1506	3681	inactive
mRpL37 (mitochondrial ribosomal protein L37)	DRSC16062		12775		3818		inactive
CG31115	DRSC13692		2279		1223		inactive
RpL28 + snoRNA:Or-CD12	DRSC08293		5992		1835		inactive
zetaCOP (Coat Protein (coatomer) zeta)	DRSC11412		5538		2120		inactive
CG11723	DRSC00324		10224		2377		inactive
Shab (Shaker cognate b)	DRSC08013		2092		1666		inactive
Shab (Shaker cognate b)	DRSC08643		4201		2144		inactive
Shab (Shaker cognate b)	DRSC08699		13248		4916		inactive
CG32192	DRSC21760		2.96e5	2.91e5	1.45e5	91706	inactive
Ac13E (Adenylyl cyclase 13E)	DRSC19325		27712		11424		inactive
CG5391	DRSC15790		38643		6673		inactive
Dlg5 (Discs large 5)	DRSC02964		3525		1829		inactive
ScsbetaA (Succinyl-coenzyme A synthetase beta subunit, ADP-forming)	DRSC14446		4151		1686		inactive
ddbt (deadbeat)	DRSC07869		3845		1717		inactive
CG32281	DRSC08236		4199		2112		inactive
PMP34 (Peroxisomal Membrane Protein 34)	DRSC21939		6.67e5	6.17e5	3.06e5	3.26e5	inactive
CG34155	DRSC13991		4608		1780		inactive
CG8230	DRSC05931		2824	7881	582	1892	inactive
CG15247	DRSC17976		17627		9650		inactive
CG7130	DRSC11797		22056		6828		inactive
GstE9 (Glutathione S transferase E9)	DRSC06679		7819		2055		inactive
CG3894	DRSC01762		18280		9687		inactive
CG3894	DRSC04012		19568		10050		inactive
CG3894	DRSC04429		6349	13744	1376	3986	inactive
CG15784	DRSC18090		13604		9562		inactive
CG18304	DRSC02664		3771	7160	893	935	inactive
CG13872	DRSC06431		6408		2362		inactive
CG8635	DRSC07226		7221		2451		inactive
CG34452	DRSC09387		4515		983		inactive
CG9286	DRSC16467		7687		1381		inactive
hry (hairy)	DRSC11353	Wg reporter activity raised	10385		1303		active
CG32299 + CG32298	DRSC07980		2930		1265		inactive
CG32299 + CG32298	DRSC22354		5.12e5	4.70e5	1.75e5	1.54e5	inactive
Mal-B1 (Maltase B1)	DRSC02416		2325	9819	1164	4848	inactive
CG1999	DRSC18199	Wg reporter activity lowered	1117	5264	971	2468	inactive
obst-E (obstructor-E)	DRSC02128		7956		3286		inactive
Akap200 (A kinase anchor protein 200)	DRSC01864		10042		3917		inactive
CG14915	DRSC02399		2346	4432	1015	3792	inactive
CG18088	DRSC02654		2157	4728	605	2428	inactive
Or43b (Odorant receptor 43b)	DRSC07486		2632	6688	793	2085	inactive
tra2 (transformer 2)	DRSC07708		15220		3564		inactive
eater	DRSC15969		11068		4144		inactive
eater	DRSC22254		4.54e5	4.29e5	1.78e5	1.83e5	inactive
Prp38 (pre-mRNA processing factor 38)	DRSC07060		7024		1009		inactive
Tep2 (Thioester-containing protein 2)	DRSC02679		2076	6340	435	2669	inactive
Tep2 (Thioester-containing protein 2)	DRSC03451		1990	8163	326	2903	inactive
AnxB11 (Annexin B11)	DRSC19331		1453	5463	919	2440	inactive

A run of entries taken from the entries so far, as a working copy:
target gene	DRSC id	reporter change call, replicate 1	firefly reporter light, replicate 1	firefly reporter light, replicate 2	Renilla control light, replicate 1	Renilla control light, replicate 2	outcome
CG42523	DRSC00251		19840		11709		inactive
Lcp9 (Larval cuticle protein 9)	DRSC04287		3453	6691	774	1820	inactive
CG15657	DRSC04248		2261	3460	873	1818	inactive
CG2246	DRSC15433		3126	6681	1506	3681	inactive
mRpL37 (mitochondrial ribosomal protein L37)	DRSC16062		12775		3818		inactive
